Measurements: PubChem BioAssay AID1347075 (National Center for Advancing Translational Sciences (NCATS), 2019)
Among all 400,000 compounds or so, about 5,500 (1.4%) were called active. Inconclusive means that the source gave no clear call. Such entries were picked first, then a sample of the others. Calls follow the shape of the dose curve; as a rule, active = well fitted cell-killing curve with a large enough effect; inconclusive = small, poorly fitted or top-dose-only effect, or effect the other way; inactive = flat fitted curve, though single readings scatter. Potencies beside an inconclusive call are fits to weak or partial responses and may not hold up.

Assay: qHTS assay for MDR1-selective chemotherapeutics: Primary screen using the parental adenocarcinoma cell KB-3-1; also: nearly all actives have a fitted effect of over 60% in size
Conditions: KB-3-1 viability, CellTiter-Glo ATP luminescence, 72 h; activity change, negative = cytotoxic: at 46.1 µM (top of the series)
Summary of the method: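 KB-3-1 cells, DMEM (no phenol red) + 10% FBS; compound by pin transfer, 72 h, 37 °C. Readout: CellTiter-Glo luminescence after 10 min. Data normalized, curve-fitted.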
% is scaled to controls: 0 for no effect and ±100 for the full control effect; potency is read from the fitted curve at half-maximal effect.

SMILES	Potency	activity change, negative = cytotoxic
O=C(COC(=O)c1c(F)cccc1Cl)NCC1CCCCC1	inactive	
O=C(Nc1sc2c(c1C(=O)O)CCCCC2)c1ccccc1F	active: 11.6 µM	
COc1cc(N(C)C)ccc1C=c1c2ccccc2n2c1cc(-c1ccccc1)[n+]2C	active: 1.03 µM	
O=C(Nc1ccc(Cl)c(-c2nc3ccccc3[nH]2)c1)c1ccc2c(c1)OCO2	inconclusive: 20.6 µM [cytotoxic, partial curve, poor fit]	
O=C(Nc1ccncc1)c1ccc2c(c1)OCCO2	inconclusive: 4.11 µM [cytotoxic, full curve, poor fit]	
CN(C)c1cc2c(c(N(C)C)c1)C(=O)c1ccccc1C2=O	inconclusive: 29.1 µM [cytotoxic, single point]	
Cc1ccc(Cl)cc1NC(=O)CSc1nc2c(c(=O)[nH]1)CN(Cc1ccccc1)CC2	inactive	
CCOC(=O)c1ccccc1NC(=O)COC(=O)C(CC(C)C)NC(N)=O (configuration not stated)	inactive	
C=CCn1c2ccccc2c(=O)c2cc(C#CC3(O)CCCCC3)ccc21	inconclusive: 29.1 µM [cytotoxic, single point]	
Cc1cc2cc(C#N)c(SCC(=O)Nc3nonc3C)nc2cc1C	inactive	
Cc1ccc(SC2=C[C@@]3(O)CC[C@@H](O)[C@@](Sc4ccc(C)cc4)(C2=O)[C@H]3O)cc1	inconclusive: 20.6 µM [cytotoxic, single point]	
COc1ccc(CNC(=O)c2cc3cccc4c3n2CC(C)S4)c(OC)c1 (configuration not stated)	inconclusive: 16.4 µM [cytotoxic, single point]	
CC(C)c1ccc(C(=O)CN2C(=O)NC3(CCc4ccccc43)C2=O)cc1 (configuration not stated)	inconclusive: 29.1 µM [cytotoxic, single point]	
COc1ccccc1NC(=S)N(Cc1ccco1)Cc1cc2ccc(C)c(C)c2[nH]c1=O	active: 0.92 µM	
C[C@H](O)[C@@H]1C(=O)N2CCc3ccc(-c4cccc(F)c4)cc3[C@@H]2C[C@@H]1N(C)S(=O)(=O)c1ccccc1	inconclusive: 29.1 µM [cytotoxic, single point]	
Cc1[nH]n(-c2ccccc2)c(=S)c1C=Nc1ccc([N+](=O)[O-])cc1	inactive	
CC(C)C(N)c1csc(Nc2ccc(C(F)(F)F)cn2)n1 (configuration not stated)	inconclusive: 29.1 µM [cytotoxic, single point]	
COc1ccc(CSCC(=O)N/N=C/c2ccccc2O)cc1	inconclusive: 18.4 µM [cytotoxic, single point]	
COc1ccc(C(=O)/C=C/C(=O)N(CC(=O)NC2CCCCC2)Cc2ccccc2)c(O)c1	inconclusive: 29.1 µM [cytotoxic, single point]	
O=C(O)C(C=C(Cl)Cl)N1CCOCC1 (configuration not stated)	inconclusive: 20.6 µM [rising, single point]	
Cn1c(=O)[nH]c(=O)c2c1nc(N1CCNCC1)n2Cc1ccccc1	inactive	
O=C(NC(=S)N1CCc2ccccc21)c1ccc(Br)o1	inconclusive: 29.1 µM [cytotoxic, single point]	
COc1ccc(NC(=S)Nc2ccccn2)c(OC)c1	inconclusive: 29.1 µM [cytotoxic, single point]	
CN1CCN(c2nc3ccccc3nc2C(C#N)C(=O)OC2CCCCC2)CC1 (configuration not stated)	inconclusive: 29.1 µM [cytotoxic, single point]	

SMILES	Potency	activity change, negative = cytotoxic
Cc1cccc(C)c1Nc1n[nH]c(=S)s1	inconclusive: 13 µM [rising, partial curve]	
O=C(Nc1cccc(Cl)c1)Nc1csc([N+](=O)[O-])c1	inconclusive: 29.1 µM [cytotoxic, single point]	
CC1=NC(Nc2nc(C)c3ccccc3n2)=NC(C)(C)C1	inconclusive: 16.4 µM [rising, single point]	
CCOC(=O)c1c(S(=O)(=O)NCC(=O)Nc2ccccc2F)c(C)n(C)c1C	inconclusive: 25.9 µM [rising, single point]	
COc1ccc([C@H]2CC(=O)C=C(c3ccc4ccn(C)c4c3)C2)cc1	inconclusive: 32.6 µM [cytotoxic, single point]	
COc1cc(CNC2CCCCC2)c(Br)cc1OC1CCCC1	inconclusive: 29.1 µM [cytotoxic, single point]	
Cc1cc2cc(CCNC(=O)c3cccs3)c(=O)[nH]c2cc1C	inconclusive: 29.1 µM [cytotoxic, single point]	
Cc1nn(C)c2c1c(-c1ccccc1)cc(=O)n2Cc1ccc(Cl)cc1	inactive	
COC(=O)COc1ccc(S(=O)(=O)Nc2ccc3c(c2)OCCO3)cc1C	inconclusive: 23.1 µM [cytotoxic, single point]	
CC1=C(C(=O)OC(C)C)C(C)C(C(=O)OC(C)C)=C(C)N1	inconclusive: 29.1 µM [cytotoxic, single point]	
CCOc1ccc(S(=O)(=O)N2CCC(N3CCN(Cc4ccc(C)cc4)C(=O)C3=O)CC2)cc1	inactive	
CCC(=O)NC(=S)Nc1c(C)cc(Br)cc1C	inactive	
NC(Cc1ccc(F)cc1)c1csc(Nc2ccc(C(=O)c3ccccc3)cc2)n1 (configuration not stated)	inconclusive: 29.1 µM [cytotoxic, single point]	
COc1ccc(C)cc1-n1c(-c2ccc(C)cc2)cc2c1CC(C)(C)CC2=O	inactive	
c1ccc2nc3c(nc2c1)c1ccccc1n3CCN1CCOCC1	inactive	
Cn1c(SCc2ccccc2Br)nc2ccccc2c1=O	inconclusive: 29.1 µM [cytotoxic, single point]	
CC(C)(C)c1ccc(OCCn2c(CCNC(=O)C3CCCCC3)nc3ccccc32)cc1	inconclusive: 29.1 µM [cytotoxic, single point]	
COc1cccc(N2CCN(Cc3nc4scc(-c5ccccc5)c4c(=O)[nH]3)CC2)c1	inconclusive: 16.4 µM [cytotoxic, single point]	
COc1ccc(-c2nc3scc(CCNC(=O)c4cc(OC)cc(OC)c4)n3n2)cc1	inconclusive: 9.2 µM [cytotoxic, partial curve, poor fit]	
O=c1[nH]c(Cc2ccccn2)nc2scc(-c3ccc(Cl)cc3)c12	inconclusive: 23.1 µM [cytotoxic, single point]	
CCn1c(-c2sc(-c3ccccc3)nc2C)n[nH]c1=S	inactive	
CCOC(=O)CSC1=NC(=O)/C(=C\c2ccc(Cl)cc2)S1	inconclusive: 20.6 µM [cytotoxic, single point]	
CCCNC(=S)NC1CCCC1	inactive	
O=C1C2CCCN2C(=O)N1CCCN1CCN(c2ccc([N+](=O)[O-])cc2)CC1 (configuration not stated)	inactive	

In a second layout: results already given
SMILES | Potency | activity change, negative = cytotoxic
COc1ccc(-c2nc3scc(CCNC(=O)c4cc(OC)cc(OC)c4)n3n2)cc1 | inconclusive: 9.2 µM [cytotoxic, partial curve, poor fit] | 
O=c1[nH]c(Cc2ccccn2)nc2scc(-c3ccc(Cl)cc3)c12 | inconclusive: 23.1 µM [cytotoxic, single point] | 
CCn1c(-c2sc(-c3ccccc3)nc2C)n[nH]c1=S | inactive | 
CCOC(=O)CSC1=NC(=O)/C(=C\c2ccc(Cl)cc2)S1 | inconclusive: 20.6 µM [cytotoxic, single point] | 

The list continues:

SMILES	Potency	activity change, negative = cytotoxic
COc1ccccc1OCCC(=O)Nc1nc(C)cs1	inactive	
COc1ccc(Nc2cc(C)c3cc(NC(=O)c4cc(OC)cc(OC)c4)ccc3n2)cc1	active: 8.2 µM	
N#Cc1ccc(-c2ccc(Cl)cc2)nc1SCC(=O)c1cccc(Cl)c1	inconclusive: 29.1 µM [cytotoxic, single point]	
Oc1ccccc1C1OCC2(CO1)COC(c1ccccc1O)OC2 (configuration not stated)	inconclusive: 0.326 µM [cytotoxic, full curve]	
C/C(=N\OCC(=O)OC(C)C(=O)Nc1ccc(C)c(S(=O)(=O)N2CCOCC2)c1)c1ccc2c(c1)OCO2 (configuration not stated)		inconclusive: -13.7%
Cc1ccc(-n2nc3c(=O)n(C(C)C(=O)NCc4ccccc4Cl)nc(C)c3c2C)cc1 (configuration not stated)	inconclusive: 18.4 µM [cytotoxic, single point]	
O=C(Nc1ccccc1Oc1ccccc1)C1CCCC1		inconclusive: 0.651%
Cc1ccc(NC(=O)CN(C)C(=O)c2ccc3[nH]c4c(c3c2)CC(C)CC4)cc1 (configuration not stated)	inconclusive: 32.6 µM [cytotoxic, single point]	
CCN1CCC(N(Cc2ccc(F)cc2)C(=O)Nc2cc(Cl)ccc2C(=O)OC)CC1	inactive	
O=C(N/N=C/c1ccc(Cl)cc1)c1n[nH]c2c1CCCC2	active: 4.61 µM	
CCn1c(/C=C/N(C)c2ccccc2)[n+](CC)c2ccc(Cl)cc21	active: 5.17 µM	
Cc1ccc(NS(=O)(=O)c2cccc(C(=O)Nc3cccnc3)c2)c(C)c1	inconclusive: 4.11 µM [cytotoxic, partial curve]	
CCOC(=O)C1CCN(C(=O)c2oc3ccc(S(=O)(=O)N4CC(C)CC(C)C4)cc3c2C)CC1 (configuration not stated)	inconclusive: 23.1 µM [cytotoxic, single point]	
COC(=O)[C@@]12C[C@@H](CC(=O)N3CCOCC3)C(=O)N(Cc3ccco3)C1=CCC(C)(C)C2	inactive	
CCS(=O)(=O)Nc1cccc(C2=NN(C(=O)c3ccco3)C(c3ccco3)C2)c1 (configuration not stated)	active: 8.2 µM	
O=C(Nc1ccc(S(=O)(=O)N2CCCC2)cc1)Nc1ccc(F)cc1F	inactive	
COC(=O)c1ccccc1NC(=O)N1CCN(C(=O)c2ccco2)CC1	inconclusive: 23.1 µM [rising, partial curve, poor fit]	
Cc1ccc(N=C2CCCN2Cc2ccccc2)c(C#N)c1	inconclusive: 20.6 µM [cytotoxic, partial curve]	
CCOC(=O)N1CCN(C(=O)c2ccccc2N(Cc2ccccc2)S(=O)(=O)c2ccccc2)CC1	inconclusive: 2.91 µM [rising, partial curve, poor fit]	
C=CCn1c(SCC(=O)c2ccc(O)c(O)c2)nnc1-c1cccc(C)c1	inactive	
Cc1cc(-c2ccc(/C=N/n3cnnc3)o2)c(C)c([N+](=O)[O-])c1	inactive	
CC(=O)N(C(C)=O)n1c(/C=C/c2ccc([N+](=O)[O-])cc2)nc2ccccc2c1=O	inactive	
Cc1cc(S(=O)(=O)NCc2cccs2)ccc1-n1cnnn1	inactive	
Cc1cc(N2CCN(C(=O)c3ccco3)CC2)n2nc(-c3cccc(Cl)c3)cc2n1	inconclusive: 25.9 µM [cytotoxic, single point]	
